Test results from US20240082431A1, “METALLOHYDROPORPHYRINS FOR PHOTOACOUSTIC IMAGING” (NIRvana Sciences, Inc., priority 2021, published 2024).

Assay: Photoacoustic imaging of dyes in agar phantoms (VEVO LAZR 2100, PA scanning mode 680-900 nm)
Type: physicochemical
Settings: agar phantom, at the indicated wavelength, 63 μM B107, 50 μM ICG in DMF
Procedure: Indocyanine Green (ICG), was obtained from Sigma-Aldrich (Catalogue No. I2633; Sigma-Aldrich Corp., St. Louis, Missouri, United States of America). The nickel bacteriochlorin B107 was prepared as described in Sun et al., 2013 and Chen et al, 2012. Each dye was dissolved in N,N-dimethylformamide (DMF) at the desired concentrations prior to the imaging experiments. Molds for preparing agar phantoms were typically 90 mm diameter glass Petri dishes.
A highly purified agar powder (Catalogue No. A7921; Sigma-Aldrich Corp., St. Louis, Missouri, United States of America) was dissolved in water (Reagent Grade, Type I) to a final concentration of 2.0% and heated to the melting temperature of 95° C. in a microwave oven. […] The bottle containing agar was held at 75-85° C. for 1-3 hours using a standard hot plate and a double boiler to avoid scorching (which causes a detectable increase in the absorption coefficient). This waiting period at an elevated temperature allows the slow release of air bubbles and produces an agar solution with negligible absorption and very low turbidity. […]
Photoacoustic imaging was performed using a VEVO® LAZR^2100 imaging system (VisualSonics, Inc., Toronto, Ontario, Canada) equipped with software version 1.7.2. […] The tubing and its associated image regions were isolated by ultrasound and PA signals for PA intensity quantitation. […]

Structure (SMILES): CC1(C)C(/C=C/C=C/C=C/C=C2\N(CCCCS(=O)(=O)O)c3ccc4ccccc4c3C2(C)C)=[N+](CCCCS(=O)(=O)[O-])c2ccc3ccccc3c21 [ICG, Indocyanine Green]
- PAI signal intensity (depth 3 mm): 0.72
- PAI signal intensity (depth 6 mm): 0.38

Where no unit stands, none is given here, and values compare only within one read-out.
